Measured values published in article PMC6821831, “Colorimetric Assay Reports on Acyl Carrier Protein Interactions” (Scientific Reports, 2019).
Results are given in words; binding and its absence hold for the method and conditions named.

What was measured:
[1] = molecular target: T1, FabF (E. coli ketoacyl synthase) (E. coli), P0AAI5; assay: AUC; sedimentation velocity titration; FabF constant at 16 uM, AcpP 0-230 uM or ACT ACP 0-250 uM; 20 mM Tris-HCl pH 8.0, 150 mM NaCl, 1 mM DTT, 20 C; s(w) and EPT s(w) fast isotherms fitted globally to A + B <-> AB; both purified; conditions: remark: other sources report otherwise
T1 chain: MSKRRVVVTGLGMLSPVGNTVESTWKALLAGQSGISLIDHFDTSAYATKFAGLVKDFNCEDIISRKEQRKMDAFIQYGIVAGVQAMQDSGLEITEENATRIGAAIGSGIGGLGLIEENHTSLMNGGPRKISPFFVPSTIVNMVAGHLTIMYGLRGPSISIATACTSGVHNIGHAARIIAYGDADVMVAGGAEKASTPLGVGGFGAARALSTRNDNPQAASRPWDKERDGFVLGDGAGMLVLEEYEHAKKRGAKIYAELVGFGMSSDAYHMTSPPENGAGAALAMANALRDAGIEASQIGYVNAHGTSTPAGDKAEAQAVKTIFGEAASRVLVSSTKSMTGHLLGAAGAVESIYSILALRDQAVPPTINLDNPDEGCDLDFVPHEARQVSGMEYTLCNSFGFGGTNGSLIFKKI

[2] = molecular target: holo-ACT ACP (wild type; ACP of the actinorhodin type II PKS) (UniProt Q02054); assay: AUC; sedimentation velocity of each protein alone; FabF 10-36 uM, holo-AcpP 345-488 uM, holo-ACT ACP (wild type) 98-196 uM; 20 mM Tris-HCl pH 8.0, 150 mM NaCl, 1 mM DTT, 20 C; both purified

B1: holo-ACT ACP (wild type; ACP of the actinorhodin type II PKS), Q02054 1-86 (protein)
chain: MATLLTTDDLRRALVECAGETDGTDLSGDFLDLRFEDIGYDSLALMETAARLESRYGVSIPDDVAGRVDTPRELLDLINGALAEAA
modifications: here or on the partner: 4'-phosphopantetheine (Ppant) arm on the conserved serine (holo form)
[1]
  binding: no binding (tested: ACT ACP at 0-250 uM with 16 uM FabF)

B2: holo-ACT ACP (wild type; ACP of the actinorhodin type II PKS) (protein, UniProt Q02054 1-86)
chain: MATLLTTDDLRRALVECAGETDGTDLSGDFLDLRFEDIGYDSLALMETAARLESRYGVSIPDDVAGRVDTPRELLDLINGALAEAA
modifications: 4'-phosphopantetheine (Ppant) arm on the conserved serine (holo form)
[2]
  binding: no binding (tested: 98-196 uM)
